Reference: the supplement of paper PMC10849652
Some of the results follow.

Chains of the proteins cited; added tags and fusions are not shown. Lines headed by an entry give the natural chain unless they say otherwise; changes in a name come on top.
UniProt Q9BRX9: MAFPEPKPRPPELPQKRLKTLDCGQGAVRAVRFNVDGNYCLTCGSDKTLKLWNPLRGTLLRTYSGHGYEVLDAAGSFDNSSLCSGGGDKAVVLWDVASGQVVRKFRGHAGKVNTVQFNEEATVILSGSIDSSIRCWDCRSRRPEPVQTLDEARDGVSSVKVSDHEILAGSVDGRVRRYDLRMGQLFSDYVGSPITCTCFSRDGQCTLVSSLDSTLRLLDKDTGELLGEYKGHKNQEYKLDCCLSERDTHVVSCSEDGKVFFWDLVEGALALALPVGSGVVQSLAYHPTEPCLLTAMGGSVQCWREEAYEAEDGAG
UniProt Q96P53: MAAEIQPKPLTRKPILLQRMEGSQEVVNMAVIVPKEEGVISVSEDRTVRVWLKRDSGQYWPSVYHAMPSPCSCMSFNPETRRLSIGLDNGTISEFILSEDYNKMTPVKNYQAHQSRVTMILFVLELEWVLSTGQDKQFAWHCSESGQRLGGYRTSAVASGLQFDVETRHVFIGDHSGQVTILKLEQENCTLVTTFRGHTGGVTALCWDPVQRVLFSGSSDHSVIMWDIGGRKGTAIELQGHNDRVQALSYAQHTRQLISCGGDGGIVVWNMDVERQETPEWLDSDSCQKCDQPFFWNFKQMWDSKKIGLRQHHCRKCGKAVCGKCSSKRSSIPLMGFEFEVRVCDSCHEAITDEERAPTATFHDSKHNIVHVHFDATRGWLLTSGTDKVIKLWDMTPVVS
UniProt O15240: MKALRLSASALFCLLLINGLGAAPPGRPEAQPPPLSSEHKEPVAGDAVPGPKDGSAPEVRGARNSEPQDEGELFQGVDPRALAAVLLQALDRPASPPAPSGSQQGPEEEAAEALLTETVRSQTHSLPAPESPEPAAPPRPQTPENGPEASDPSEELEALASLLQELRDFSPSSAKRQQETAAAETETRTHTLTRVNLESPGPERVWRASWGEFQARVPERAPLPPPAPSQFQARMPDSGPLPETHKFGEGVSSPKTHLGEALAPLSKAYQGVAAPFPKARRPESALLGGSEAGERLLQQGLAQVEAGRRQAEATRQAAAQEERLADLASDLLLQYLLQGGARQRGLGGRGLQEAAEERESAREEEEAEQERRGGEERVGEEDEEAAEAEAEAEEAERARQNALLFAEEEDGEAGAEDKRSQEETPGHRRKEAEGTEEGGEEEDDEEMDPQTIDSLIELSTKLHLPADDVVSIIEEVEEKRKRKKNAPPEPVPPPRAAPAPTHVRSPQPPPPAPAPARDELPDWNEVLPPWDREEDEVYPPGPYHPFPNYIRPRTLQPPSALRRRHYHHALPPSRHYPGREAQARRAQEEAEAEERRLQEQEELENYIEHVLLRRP
UniProt O95497: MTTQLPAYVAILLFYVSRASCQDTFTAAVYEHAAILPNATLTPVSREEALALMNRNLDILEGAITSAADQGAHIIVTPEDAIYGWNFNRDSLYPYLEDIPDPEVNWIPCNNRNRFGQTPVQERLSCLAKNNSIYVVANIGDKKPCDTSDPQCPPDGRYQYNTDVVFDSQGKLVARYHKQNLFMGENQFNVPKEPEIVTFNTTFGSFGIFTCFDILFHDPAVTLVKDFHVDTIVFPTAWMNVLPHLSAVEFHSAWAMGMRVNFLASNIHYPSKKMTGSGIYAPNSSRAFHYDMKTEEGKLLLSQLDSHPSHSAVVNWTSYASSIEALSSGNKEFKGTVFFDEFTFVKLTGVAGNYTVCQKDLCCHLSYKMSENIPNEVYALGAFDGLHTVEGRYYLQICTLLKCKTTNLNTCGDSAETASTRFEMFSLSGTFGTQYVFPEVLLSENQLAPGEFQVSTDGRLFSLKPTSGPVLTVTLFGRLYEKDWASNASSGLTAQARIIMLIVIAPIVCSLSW
UniProt Q9BTA9: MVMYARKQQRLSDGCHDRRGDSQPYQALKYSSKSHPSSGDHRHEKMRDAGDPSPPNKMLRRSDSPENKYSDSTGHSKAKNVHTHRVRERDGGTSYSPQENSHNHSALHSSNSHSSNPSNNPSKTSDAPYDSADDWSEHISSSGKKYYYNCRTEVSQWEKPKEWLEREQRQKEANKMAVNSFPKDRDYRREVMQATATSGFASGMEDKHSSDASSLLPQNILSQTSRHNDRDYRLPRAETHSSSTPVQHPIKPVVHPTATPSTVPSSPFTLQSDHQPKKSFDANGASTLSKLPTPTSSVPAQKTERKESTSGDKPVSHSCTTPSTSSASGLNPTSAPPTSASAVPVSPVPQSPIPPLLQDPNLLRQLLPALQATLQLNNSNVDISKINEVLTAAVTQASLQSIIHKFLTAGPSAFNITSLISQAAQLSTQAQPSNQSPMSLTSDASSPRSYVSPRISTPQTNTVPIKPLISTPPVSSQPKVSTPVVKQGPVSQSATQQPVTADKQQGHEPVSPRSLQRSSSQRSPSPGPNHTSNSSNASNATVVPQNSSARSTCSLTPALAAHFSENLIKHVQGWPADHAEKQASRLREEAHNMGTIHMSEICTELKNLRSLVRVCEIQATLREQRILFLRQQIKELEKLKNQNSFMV
UniProt Q9HCS7: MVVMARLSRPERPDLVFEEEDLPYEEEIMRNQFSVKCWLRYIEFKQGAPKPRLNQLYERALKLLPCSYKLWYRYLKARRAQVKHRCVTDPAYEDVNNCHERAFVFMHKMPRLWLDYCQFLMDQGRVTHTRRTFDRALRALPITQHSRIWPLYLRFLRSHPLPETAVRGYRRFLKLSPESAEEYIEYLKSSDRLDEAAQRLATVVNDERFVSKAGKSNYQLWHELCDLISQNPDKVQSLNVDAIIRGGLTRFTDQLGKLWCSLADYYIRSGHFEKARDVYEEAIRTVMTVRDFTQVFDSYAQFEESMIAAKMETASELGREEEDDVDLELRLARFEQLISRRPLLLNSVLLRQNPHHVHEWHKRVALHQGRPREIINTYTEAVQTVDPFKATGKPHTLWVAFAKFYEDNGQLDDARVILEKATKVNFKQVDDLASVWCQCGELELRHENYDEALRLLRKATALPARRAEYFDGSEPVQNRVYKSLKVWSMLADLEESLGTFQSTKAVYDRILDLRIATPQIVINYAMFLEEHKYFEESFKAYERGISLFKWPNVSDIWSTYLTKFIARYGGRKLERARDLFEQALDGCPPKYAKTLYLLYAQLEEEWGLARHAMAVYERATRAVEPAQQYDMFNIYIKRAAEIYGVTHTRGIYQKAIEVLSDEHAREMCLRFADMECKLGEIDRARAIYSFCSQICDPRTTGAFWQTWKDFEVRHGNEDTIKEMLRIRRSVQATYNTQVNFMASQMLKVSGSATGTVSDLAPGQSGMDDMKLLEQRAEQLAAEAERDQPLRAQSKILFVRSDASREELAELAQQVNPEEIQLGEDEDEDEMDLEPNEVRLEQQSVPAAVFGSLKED
UniProt Q8IWA0: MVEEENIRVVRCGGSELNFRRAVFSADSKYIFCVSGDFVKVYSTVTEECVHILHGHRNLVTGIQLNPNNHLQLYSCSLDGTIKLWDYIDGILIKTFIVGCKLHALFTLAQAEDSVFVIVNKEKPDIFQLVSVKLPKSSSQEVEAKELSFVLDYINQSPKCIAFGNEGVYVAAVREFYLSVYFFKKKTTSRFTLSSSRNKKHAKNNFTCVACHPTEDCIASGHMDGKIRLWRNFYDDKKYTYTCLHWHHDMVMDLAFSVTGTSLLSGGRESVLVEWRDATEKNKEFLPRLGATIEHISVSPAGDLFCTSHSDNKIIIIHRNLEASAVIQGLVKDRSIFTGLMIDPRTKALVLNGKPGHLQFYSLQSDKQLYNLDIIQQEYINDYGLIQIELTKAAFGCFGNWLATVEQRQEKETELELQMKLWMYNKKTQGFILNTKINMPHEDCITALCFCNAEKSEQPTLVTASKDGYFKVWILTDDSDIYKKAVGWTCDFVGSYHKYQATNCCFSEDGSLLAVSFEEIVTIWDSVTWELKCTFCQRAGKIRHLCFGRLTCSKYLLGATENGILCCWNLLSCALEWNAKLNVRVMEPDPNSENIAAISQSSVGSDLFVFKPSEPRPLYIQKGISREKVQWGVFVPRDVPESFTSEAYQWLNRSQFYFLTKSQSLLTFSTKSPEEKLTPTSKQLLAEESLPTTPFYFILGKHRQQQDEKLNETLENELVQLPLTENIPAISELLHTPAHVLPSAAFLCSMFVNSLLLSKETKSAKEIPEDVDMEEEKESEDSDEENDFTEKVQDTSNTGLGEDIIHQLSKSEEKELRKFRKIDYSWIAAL
UniProt Q9NX94: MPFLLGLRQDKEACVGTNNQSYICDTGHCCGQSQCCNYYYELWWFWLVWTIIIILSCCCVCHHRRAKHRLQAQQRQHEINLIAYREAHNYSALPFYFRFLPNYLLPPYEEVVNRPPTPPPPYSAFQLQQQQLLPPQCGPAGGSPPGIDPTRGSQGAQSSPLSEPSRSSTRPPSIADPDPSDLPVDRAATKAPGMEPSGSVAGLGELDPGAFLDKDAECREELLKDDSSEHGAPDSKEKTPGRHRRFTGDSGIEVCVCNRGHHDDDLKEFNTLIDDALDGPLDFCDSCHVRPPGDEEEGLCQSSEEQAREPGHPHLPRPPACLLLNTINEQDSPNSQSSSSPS
UniProt P30291: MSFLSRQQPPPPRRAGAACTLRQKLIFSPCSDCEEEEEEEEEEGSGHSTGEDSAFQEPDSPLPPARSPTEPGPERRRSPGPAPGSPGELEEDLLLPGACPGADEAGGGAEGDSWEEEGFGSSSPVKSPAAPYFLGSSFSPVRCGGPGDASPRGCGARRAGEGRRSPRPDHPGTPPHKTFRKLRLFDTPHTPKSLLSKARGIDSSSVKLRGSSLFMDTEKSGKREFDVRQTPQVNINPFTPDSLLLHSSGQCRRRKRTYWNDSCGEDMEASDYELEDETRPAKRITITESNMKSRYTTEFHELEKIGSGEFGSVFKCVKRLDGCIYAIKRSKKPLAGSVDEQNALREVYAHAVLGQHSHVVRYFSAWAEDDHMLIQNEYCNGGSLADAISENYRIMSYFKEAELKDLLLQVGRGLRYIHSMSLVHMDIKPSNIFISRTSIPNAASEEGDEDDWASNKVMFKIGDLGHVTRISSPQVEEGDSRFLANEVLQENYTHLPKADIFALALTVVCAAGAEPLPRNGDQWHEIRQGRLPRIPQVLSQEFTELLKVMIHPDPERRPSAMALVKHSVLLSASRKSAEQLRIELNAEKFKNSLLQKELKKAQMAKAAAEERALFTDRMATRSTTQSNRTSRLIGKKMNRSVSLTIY
UniProt P57081: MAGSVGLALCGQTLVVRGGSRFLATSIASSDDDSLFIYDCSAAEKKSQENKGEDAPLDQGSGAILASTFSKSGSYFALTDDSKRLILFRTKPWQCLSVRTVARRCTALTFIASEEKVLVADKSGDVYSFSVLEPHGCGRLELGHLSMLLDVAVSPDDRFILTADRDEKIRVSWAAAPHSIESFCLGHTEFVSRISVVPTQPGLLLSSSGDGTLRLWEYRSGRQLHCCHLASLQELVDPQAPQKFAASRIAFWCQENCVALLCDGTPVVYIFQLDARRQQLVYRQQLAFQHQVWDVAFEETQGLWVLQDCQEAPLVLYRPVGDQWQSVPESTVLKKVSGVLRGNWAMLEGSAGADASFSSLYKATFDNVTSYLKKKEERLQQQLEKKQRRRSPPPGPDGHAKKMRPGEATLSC
UniProt Q9P1Q0: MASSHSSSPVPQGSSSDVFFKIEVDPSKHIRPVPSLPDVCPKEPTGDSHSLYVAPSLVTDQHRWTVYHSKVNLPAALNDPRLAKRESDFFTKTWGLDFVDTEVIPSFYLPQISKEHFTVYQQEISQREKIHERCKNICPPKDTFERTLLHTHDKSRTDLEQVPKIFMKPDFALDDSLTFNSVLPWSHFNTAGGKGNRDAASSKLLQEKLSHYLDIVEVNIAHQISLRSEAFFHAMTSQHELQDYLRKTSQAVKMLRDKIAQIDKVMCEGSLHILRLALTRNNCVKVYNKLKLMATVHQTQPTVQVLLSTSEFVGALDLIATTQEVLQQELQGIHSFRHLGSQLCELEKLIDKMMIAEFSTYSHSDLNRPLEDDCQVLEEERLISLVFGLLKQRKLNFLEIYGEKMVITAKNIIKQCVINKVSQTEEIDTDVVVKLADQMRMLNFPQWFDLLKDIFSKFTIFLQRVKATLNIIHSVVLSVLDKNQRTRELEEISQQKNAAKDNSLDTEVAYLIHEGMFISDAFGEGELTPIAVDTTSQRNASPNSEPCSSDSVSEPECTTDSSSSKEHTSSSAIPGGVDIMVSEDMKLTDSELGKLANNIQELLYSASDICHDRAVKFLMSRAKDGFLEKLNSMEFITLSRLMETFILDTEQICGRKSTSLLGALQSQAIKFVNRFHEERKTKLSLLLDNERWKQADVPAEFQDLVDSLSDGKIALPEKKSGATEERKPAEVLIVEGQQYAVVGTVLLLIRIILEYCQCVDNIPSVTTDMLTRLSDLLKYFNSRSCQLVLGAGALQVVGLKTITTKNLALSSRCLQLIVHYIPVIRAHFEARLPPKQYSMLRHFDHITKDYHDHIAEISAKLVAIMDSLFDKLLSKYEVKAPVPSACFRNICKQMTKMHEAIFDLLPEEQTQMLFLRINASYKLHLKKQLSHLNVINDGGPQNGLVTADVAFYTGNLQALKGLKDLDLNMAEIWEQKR

Columns and labels:
Assay in all cases: log2 fold change, soluble protein after heating vs DMSO (PISA); higher = thermal stabilisation; K562 cells, 10 uM, 30 min; active = over 0.2 and 3.5 SD of the protein, either way, in both replicates (recomputed)
[1] = compound: CC[C@@H]1C(=O)N(C)c2cnc(Nc3ccc(C(=O)NC4CCN(C)CC4)cc3OC)nc2N1C1CCCC1
Summary of the method: (§1)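 Soluble protein was quantified by TMTpro 16plex LC-MS/MS after channel sums were equalised. It was obtained as the supernatant after 21,000xg for 90 min from pooled aliquots of K562 cells (2×10^6 cells/mL, 10 μM compound, 30 min) heated for 3 min across 48°C-58°C and extracted in PBS with 0.5% NP-40 at 4°C. Thermal stability values are relative to control samples and come from duplicates. They are given as log2 fold changes.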

volasertib = compound: CC[C@@H]1C(=O)N(C)c2cnc(Nc3ccc(C(=O)N[C@H]4CC[C@H](N5CCN(CC6CC6)CC5)CC4)cc3OC)nc2N1C(C)C [volasertib]
Summary of the method: as §1

[2] = compound: CC[C@H](C)N1C=C(C2=C(C=C(C=C21)C3=CN=C(C=C3)N4CCNCC4)C(=O)NCC5=C(C=C(NC5=O)C)C)C
Summary of the method: as §1

[3] = compound: CCn1cc(-c2ccnc3[nH]c(-c4cccc(CN(C)C)c4)cc23)c(-c2ccc(NC(=O)N(C)C)cc2)n1
Summary of the method: as §1

[4] = compound: CN(C)CC(=O)Nc1ccc2[nH]c(=O)c3ccccc3c2c1
Summary of the method: as §1

[5] = compound: CN1C2=C(C3=C1C(=O)N(N=C3)CC4=CC(=CC=C4)N)SC(=C2)S(=O)C
Summary of the method: as §1

[6] = compound: CN1CCC(CNc2ccc3ncc(-c4cccc(OC(F)(F)F)c4)n3n2)CC1
Summary of the method: as §1

saracatinib = compound: CN1CCN(CCOc2cc(OC3CCOCC3)c3c(Nc4c(Cl)ccc5c4OCO5)ncnc3c2)CC1 [saracatinib]
Summary of the method: as §1

sotrastaurin = compound: CN1CCN(c2nc(C3=C(c4c[nH]c5ccccc45)C(=O)NC3=O)c3ccccc3n2)CC1 [sotrastaurin]
Summary of the method: as §1

Tubastatin A = compound: CN1CCc2c(c3ccccc3n2Cc2ccc(C(=O)NO)cc2)C1 [Tubastatin A]
Summary of the method: as §1

[7] = compound: CNC(=O)C1=CC=CC=C1NC2=NC(=NC=C2Cl)NC3=C(C=C(C=C3)N4CCOCC4)OC
Summary of the method: as §1

defactinib = compound: CNC(=O)c1ccc(Nc2ncc(C(F)(F)F)c(NCc3nccnc3N(C)S(C)(=O)=O)n2)cc1 [defactinib]
Summary of the method: as §1

rucaparib = compound: CNCc1ccc(-c2[nH]c3cc(F)cc4c3c2CCNC4=O)cc1 [rucaparib]
Summary of the method: as §1

[8] = compound: CNc1nc(-c2ccc3c(N)n[nH]c3c2)cc(N2C[C@@H](C(=O)NC3CCCCC3)CC[C@H]2C)n1
Summary of the method: as §1

encorafenib = compound: COC(=O)N[C@@H](C)CNc1nccc(-c2cn(C(C)C)nc2-c2cc(Cl)cc(NS(C)(=O)=O)c2F)n1 [encorafenib]
Summary of the method: as §1

[9] = compound: COC(=O)[C@H](CCSC)NC(=O)C1=C(C=C(C=C1)NC[C@H](CS)N)C2=CC=CC=C2
Summary of the method: as §1

epoxomicin = compound: CC[C@H](C)[C@@H](C(=O)N[C@@H]([C@@H](C)O)C(=O)N[C@@H](CC(C)C)C(=O)[C@]1(CO1)C)NC(=O)[C@H]([C@@H](C)CC)N(C)C(=O)C [epoxomicin]
Summary of the method: as §1

rosiglitazone = compound: CN(CCOC1=CC=C(C=C1)C[C@H]2C(=O)NC(=O)S2)C3=CC=CC=N3 (racemic) [rosiglitazone]
Summary of the method: as §1

[10] = compound: CCn1c(C(=O)N(C2CC2)C2CC2)cc2c3c(ncn3C)c(Nc3cc(C)n(C)n3)nc21
Summary of the method: as §1

alvocidib = compound: CN1CC[C@H](c2c(O)cc(O)c3c(=O)cc(-c4ccccc4Cl)oc23)[C@H](O)C1 [alvocidib]
Summary of the method: as §1

Measured: log2 fold change

VKORC1 (UniProt Q9BQB6)
inactive: [1] -0.006 | volasertib -0.079 | [2] -0.088 | [3] 0.008 | [4] 0.072 | [5] 0.03 | [6] -0.09 | saracatinib 0.002 | sotrastaurin -0.086 | Tubastatin A -0.052 | [7] 0.105 | defactinib -0.038 | rucaparib -0.059 | [8] 0.026 | encorafenib 0.057 | [9] -0.023

VLDLR (UniProt P98155)
inactive: [2] -0.024 | epoxomicin 0.049 | [3] 0.081 | [6] -0.277 | sotrastaurin -0.001 | Tubastatin A 0.015

WWP2 (UniProt O00308)
inactive: epoxomicin 0.077

VCPKMT (UniProt Q9H867)
inactive: Tubastatin A 0.018

WNK4 (UniProt Q96J92)
inactive: epoxomicin -0.187 | [4] -0.059 | Tubastatin A 0.015 | defactinib -0.061 | [9] 0.153

WARS1 (UniProt G3V277)
inactive: [2] -0.041 | [3] 0.098 | [4] -0.163 | [6] -0.12 | sotrastaurin 0.021 | Tubastatin A 0.005 | [7] -0.052 | defactinib 0 | [9] 0.14

WARS1 (UniProt G3V339)
inactive: epoxomicin -0.238

WDR81 (UniProt Q562E7)
inactive: [2] 0.186 | epoxomicin -0.208 | rosiglitazone 0.007 | sotrastaurin 0.055 | Tubastatin A -0.011

WDR54 isoform 4 (UniProt Q9H977)
inactive: [2] 0.145 | [5] -0.233 | saracatinib -0.001 | [8] 0.076

WDR83 (UniProt Q9BRX9)
inactive: [10] -0.036 | [7] -0.035

WDFY2 (UniProt Q96P53)
inactive: [10] -0.168 | [4] -0.072 | [5] -0.002 | saracatinib -0.013 | Tubastatin A -0.123 | [7] -0.054 | defactinib -0.057 | [8] 0.008 | [9] -0.12

VGF (UniProt O15240)
inactive: volasertib 0.232 | [10] 0.002 | rosiglitazone -0.096 | [7] -0.054

VHL (UniProt P40337)
inactive: [1] 0.138 | [5] -0.087 | saracatinib 0.043 | sotrastaurin -0.002 | alvocidib -0.188 | rucaparib 0.191 | [8] 0.048 | encorafenib 0.085

WSB1 (UniProt Q9Y6I7)
inactive: epoxomicin 0.389

VNN1 (UniProt O95497)
inactive: [1] -0.153 | alvocidib 0.15 | rucaparib -0.046 | encorafenib -0.04

WAC (UniProt Q9BTA9)
inactive: volasertib -0.244 | [3] -0.089 | [6] -0.031

WARS1 (UniProt G3V227)
inactive: epoxomicin -0.28 | [4] -0.045 | [5] 0.207 | saracatinib 0.003 | Tubastatin A -0.053 | defactinib -0.001 | [8] 0.021 | [9] 0.3

XAB2 (UniProt Q9HCS7)
inactive: epoxomicin 0.019 | [5] 0.026 | saracatinib 0.052 | [8] 0.073

WDR13, A0A087X091
inactive: [2] -0.137

VPS37A (UniProt Q8NEZ2)
inactive: [2] 0.085 | epoxomicin 0.045 | [3] -0.068 | [4] 0.165 | [5] 0.025 | [6] 0.054 | saracatinib -0.043 | sotrastaurin -0.087 | Tubastatin A 0.002 | [7] 0.07 | defactinib -0.164 | [8] 0.065 | [9] 0.138
active: volasertib -0.707

WDR75 (UniProt Q8IWA0)
inactive: volasertib -0.153 | [2] -0.041 | epoxomicin -0.156 | [4] -0.073 | [5] 0.166 | saracatinib -0.109 | Tubastatin A 0.173 | defactinib 0.144 | [8] 0.162 | [9] -0.197

WDR34 (UniProt Q96EX3)
inactive: volasertib -0.174 | [2] 0.14 | epoxomicin -0.116 | [10] -0.004 | [3] 0.049 | [4] -0.13 | rosiglitazone -0.007 | [5] -0.245 | [6] -0.065 | saracatinib 0.175 | sotrastaurin 0.022 | alvocidib -0.01 | [7] -0.027 | defactinib -0.014 | [8] 0.021 | [9] 0.05

WBP1L isoform 2 (UniProt Q9NX94)
inactive: rosiglitazone -0.138

WDR76 (UniProt Q9H967)
inactive: volasertib 0.016 | epoxomicin 0.11

VIL1 (UniProt P09327)
inactive: epoxomicin 0.038 | [3] 0.023 | rosiglitazone 0.023 | [6] 0.077

WEE1 (UniProt P30291)
inactive: volasertib 0.07 | [2] -0.028 | epoxomicin 0.203 | [3] -0.209 | [4] -0.103 | [5] 0.046 | [6] 0.195 | saracatinib 0.068 | sotrastaurin 0.007 | Tubastatin A 0.117 | [7] 0.075 | defactinib -0.029 | [8] -0.052 | [9] 0.082

WDR4 isoform 3 (UniProt P57081)
inactive: epoxomicin 0.017 | [3] -0.044 | [6] -0.036 | sotrastaurin 0.098

VEZT (UniProt Q9HBM0)
inactive: volasertib -0.211 | [2] 0.148 | epoxomicin 0.003 | [10] -0.039 | [3] -0.003 | [4] 0.066 | rosiglitazone 0.177 | [5] -0.038 | [6] 0.249 | saracatinib -0.035 | sotrastaurin 0.071 | alvocidib 0.12 | Tubastatin A 0.074 | [7] -0.044 | defactinib -0.083 | [8] 0.055 | [9] -0.08

VPS13A isoform 4 (UniProt Q96RL7)
inactive: volasertib -0.085 | [10] -0.143 | Tubastatin A 0.028 | [7] -0.103

VIPAS39 (UniProt Q9H9C1)
inactive: volasertib -0.402 | [2] 0.257 | [10] -0.044 | [4] 0.139 | rosiglitazone 0.297 | [5] 0.096 | saracatinib -0.231 | sotrastaurin -0.022 | alvocidib -0.233 | Tubastatin A 0.009 | [7] -0.204 | defactinib -0.119 | [8] 0.176 | [9] -0.18

VDAC2 (UniProt Q5JSD1)
inactive: volasertib 0.036 | [2] -0.337 | epoxomicin -0.215

2 consecutive records from above, for reference:
WDR81 (UniProt Q562E7)
inactive: [2] 0.186 | epoxomicin -0.208 | rosiglitazone 0.007 | sotrastaurin 0.055 | Tubastatin A -0.011

WDR54 isoform 4 (UniProt Q9H977)
inactive: [2] 0.145 | [5] -0.233 | saracatinib -0.001 | [8] 0.076

Following part.

VGLL4 isoform 4 (UniProt Q14135)
inactive: volasertib -0.09 | [2] -0.005 | epoxomicin 0.013 | [10] 0.001 | [3] 0.001 | [4] -0.01 | rosiglitazone 0.1 | [6] -0.084 | sotrastaurin 0.017 | Tubastatin A 0.078 | [7] -0.007 | defactinib -0.094 | [9] 0.047

WARS1 (UniProt G3V3P2)
inactive: sotrastaurin 0.336

WWOX (UniProt Q9NZC7)
inactive: volasertib 0.076 | [10] -0.184 | sotrastaurin -0.111 | alvocidib -0.09 | Tubastatin A -0.086 | [7] -0.079

VPS54 (UniProt Q9P1Q0)
inactive: [1] 0.097 | [10] -0.129 | [4] 0.193 | Tubastatin A 0.148 | [7] -0.161 | defactinib -0.252 | rucaparib -0.043 | encorafenib -0.074 | [9] 0.19
